PubChem BioAssay AID1347423 (Functional Genomics Laboratory (NCATS/FGL), 2020)
The campaign covered roughly 52,000 sequences. About 210 (0.4%) were called active.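 How the source made its calls: active means gene whose silencing raises cell survival under the drug, median off-target-corrected z-score across its silencing RNAs 2 or more; inactive means the rest.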 The list shows a part of the results.

Experiment: Resistance to Poly (ADP-Ribose) Polymerase inhibitor: Gene Identification via Genome-wide siRNA Screen
Settings: mouse BRCA2 R2336H ES cells, olaparib, CellTiter-Glo viability; stronger effect = higher value
Summary of the method: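 Mouse BRCA2 R2336H ES cells were reverse-transfected with siRNA (20 nM final), treated at 48 h with 500 nM olaparib, and read by CellTiter-Glo after 72 h. Scores: MAD-based z per siRNA, median per gene, seed off-target correction.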

Sequence | z-score
GGUUACAGCUUUAAGGUAATT against Ercc3 | inactive: -1.24
GGCUCUGUUCUCCACAUUGTT against Phf5a | inactive: -2.58
CGCCAUGUUUAACAAAUUGTT against Limk2 | inactive: -0.417
GGCCCAUAGUUGACUACAUTT against 8-Sep | inactive: 0.301
CCUAUUAUCUACCUUACAATT against Enpp5 | inactive: -0.364
GGACAAGAAUAAGUACAACTT against Rpl5 | inactive: -2.78
GGAGAGAUGGUAUUGUUGGTT against Olfr1298 | inactive: -0.373
AGUCGCCAACCUAUUAUUUTT against 6230427J02Rik | inactive: 0.875
GGUUCUCUGAUACCCACUCTT against 4931440L10Rik | inactive: 1.33
GAGCAUCUCAAGGAUCUUCTT against Syngr4 | inactive: -1.26
GGUGUGUGACUUUUUUUGUTT against Ube2d1 | inactive: 1.17
CCAUGACAAAUUCAAGCAGTT against Atf1 | inactive: 0.592
GGAGAUUACCGAAGCUGGUTT against BC051227 | inactive: -0.926
GUUCCGACUGAACUUGUAUTT against Psmb3 | inactive: 2.21
GGUAUUCAAUAUGGUGAAGTT against 2310001H12Rik | inactive: -0.545
AUGCUUUUUGGAGCCAUAUTT against Olfr307 | inactive: 0.809
CGUGGUGAUAUUGGAUUAATT against Myef2 | inactive: 1.21
GGAGAGUGAAGAUUAAAUCTT against 0610012C01Rik | inactive: 0.258
GGCUAUUAAAGAUACAGCGTT against Sfxn4 | inactive: 0.431
GCAACAAGAGGGCAGAAUGTT against Olfr518 | inactive: -1.61
GCUUACUACCAUUGGGAAUTT against LOC434881 | inactive: -1.02
GGAAGAAGAAUAAGGCUUUTT against Kua | inactive: 0.126
GGAGGAAUUCUUGAAGAUUTT against C920001D21Rik | inactive: -0.162
GGUCAUUUCUGUCUUCUACTT against Olfr323 | inactive: -0.318
GGGUUUCAACGGCUGUGACTT against Mef2d | inactive: 0.799
GCUGCCGUACAGUCUCUAATT against D230010M03Rik | inactive: -2.96
CCUCGAGUUCGGAAACAGATT against Chd8 | inactive: -1.46
GGUGUGUGCUAGGACUGAGTT against 4930529M08Rik | inactive: -0.945

Some values from above:
z-score, GGUGUGUGACUUUUUUUGUTT against Ube2d1 reads inactive: 1.17
z-score, CCUAUUAUCUACCUUACAATT against Enpp5 reads inactive: -0.364
